Reference: patent US11613544B2, “Substituted imidazo[1,5-a]pyrazines for modulation of IRE1” (THE REGENTS OF THE UNIVERSITY OF CALIFORNIA, priority 2012, dated 2023)
For at least one compound, name, drawing or mass did not settle the structure.

By UniProt entry, the sequences of proteins in these tests, tags left out. Chains listed by the source or under a name are the forms on record and can include a tag or linker.
UniProt O75460, with tags, fused parts or gaps: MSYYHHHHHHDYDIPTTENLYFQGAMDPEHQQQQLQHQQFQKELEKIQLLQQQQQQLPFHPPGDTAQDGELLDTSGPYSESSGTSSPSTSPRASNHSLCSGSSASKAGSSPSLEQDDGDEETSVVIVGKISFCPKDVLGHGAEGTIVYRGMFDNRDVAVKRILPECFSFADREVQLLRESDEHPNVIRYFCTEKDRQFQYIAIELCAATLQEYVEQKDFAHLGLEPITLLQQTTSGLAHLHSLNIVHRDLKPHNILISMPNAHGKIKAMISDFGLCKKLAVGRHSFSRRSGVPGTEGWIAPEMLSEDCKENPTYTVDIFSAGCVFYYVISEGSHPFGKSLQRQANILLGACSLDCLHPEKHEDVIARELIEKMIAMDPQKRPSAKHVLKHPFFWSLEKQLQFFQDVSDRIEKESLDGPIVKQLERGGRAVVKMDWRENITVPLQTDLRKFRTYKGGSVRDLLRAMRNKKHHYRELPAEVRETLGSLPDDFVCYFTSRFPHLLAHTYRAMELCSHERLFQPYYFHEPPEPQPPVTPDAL

Experiments:
endogenous IRE1α = details: INS-1, thapsigargin-induced ER stress
dP-IRE1α* = biological target: T1, dP-IRE1α* (Homo sapiens, UniProt O75460); experiment: XBP1 RNA minisubstrate RNase assay with dephosphorylated IRE1α*; assay type: biochemical
T1 construct: 6-His-tag (N); made in house; host or cells: SF9 insect cells (Bac-to-Bac baculovirus), then λ-PPase (NEB) treatment

CCN(CC)CCNC(=O)c1c(C)[nH]c(/C=C2\C(=O)Nc3ccc(F)cc32)c1C [sunitinib]
IRE1α autophosphorylation (kinase activity) (endogenous IRE1α): partially inhibit the kinase activity
XBP1 mRNA splicing (RNase of endogenous IRE1α) (endogenous IRE1α): has no effect on the RNase activity
effect on RNase activity of dP-IRE1α* (dP-IRE1α*): activates the RNase activity
